We go through three molecules from publication PMC4868969.

Results are given in words; binding and its absence hold for the method and conditions named. Binding seen in cells or lysates may run through a third protein. Some results given as binding are weak or reduced against the parent protein; the word gives no strength. Sequences can lack the tags named with a protein.

The target of assay [1] is T1, 3xFLAG-Xa13/Os8N3 (35S::Os8N3-3x flag) (rice (O. sativa)) (UniProt Q6YZF3).
T1 sequence: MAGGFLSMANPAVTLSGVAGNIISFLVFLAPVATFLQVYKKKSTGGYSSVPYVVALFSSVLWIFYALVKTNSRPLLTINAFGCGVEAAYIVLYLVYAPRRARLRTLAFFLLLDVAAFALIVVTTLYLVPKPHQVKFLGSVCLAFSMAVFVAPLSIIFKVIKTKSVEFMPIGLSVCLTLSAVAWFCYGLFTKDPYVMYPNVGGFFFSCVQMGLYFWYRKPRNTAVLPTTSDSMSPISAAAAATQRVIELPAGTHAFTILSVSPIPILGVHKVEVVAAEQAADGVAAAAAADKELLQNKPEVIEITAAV
Description: co-IP; rice protoplasts co-expressing FLAG-tagged Os8N3 and YFP-tagged OsAPX8 constructs; immunoprecipitation with anti-FLAG agarose, blot with anti-GFP and anti-FLAG.

Assay [2] concerns the target T2, Os8N3/Xa13-nYFP (rice (O. sativa)) (UniProt Q6YZF3).
T2 sequence: T1 sequence
Description: split reporter; BiFC with the C-terminal and N-terminal halves of YFP, co-expressed in TP309 rice protoplasts, confocal microscopy.

B1: OsAPX8_(1-326)-YFP (domain or fragment, UniProt Q69SV0 77-326)
chain: CMAAAAVAASDAAQLKSAREDIREILKTTYCHPIMVRLGWHDSGTYDKNIEEWPQRGGADGSLRFDAELSHGANAGLINALKLIQPIKDKYPGITYADLFQLASATAIEEAGGPKIPMKYGRVDVTAAEQCPPEGRLPDAGPRVPADHLREVFYRMGLDDKEIVALSGAHTLGRSRPDRSGWGKPETKYTKDGPGEPGGQSWTVEWLKFDNSYFKDIKEQRDQDLLVLPTDAALFEDPSFKVYAEKYAED
As for B1, the binding entry in assay [1] was “no binding”.

B2: OsAPX8-cYFP (enzyme, UniProt Q69SV0 77-478)
chain: CMAAAAVAASDAAQLKSAREDIREILKTTYCHPIMVRLGWHDSGTYDKNIEEWPQRGGADGSLRFDAELSHGANAGLINALKLIQPIKDKYPGITYADLFQLASATAIEEAGGPKIPMKYGRVDVTAAEQCPPEGRLPDAGPRVPADHLREVFYRMGLDDKEIVALSGAHTLGRSRPDRSGWGKPETKYTKDGPGEPGGQSWTVEWLKFDNSYFKDIKEQRDQDLLVLPTDAALFEDPSFKVYAEKYAEDQEAFFKDYAEAHAKLSDLGAKFDPPEGFSLDDEPAVEEKDPEPAPAPAAAPPPPPVEEKKEAEPTPVPVTVGAAVASSPADDNNGAAPQPEPFVAAKYSYGKKELSDSMKQKIRAEYEGFGGSPDKPLQSNYFLNIMLLIGGLAFLTSLLGS
Take B2: the binding entry in assay [2] is “binds”.

B3: OsAPX8-YFP (35S::OsAPX8-YFP, full length) (enzyme, UniProt Q69SV0 77-478)
chain: B2 chain
On to B3, for which, in assay [1], the binding entry is listed as “binds”.
